Results taken from the supplement of paper PMC7024190.
Counter-ions that a name gives are not always drawn. This is one part of the list. Single values are uncertain here, since repeats match poorly.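 A first-round screen of about ten thousand compounds sought those raising reporter output, using human embryonic kidney cells briefly transfected with a plasmid carrying a Renilla luciferase gene driven by the HSV-TK promoter.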

System: HEK 293FT
Assay: log relative Renilla luciferase luminescence (reporter expression vs reference, reference not stated) (log (base not stated)); higher = higher recombinant reporter expression
Conditions: 10 µM; time after transfection 48 h

Row | Compound | log
1 | Clc1ccc(CCCOCCCN2CCCCC2)cc1 | -0.0169
2 | CCOC(=O)c1c(C)[nH]c2ccc3c(c12)CN1CCc2cc(OC)ccc2C1O3 (stereo not given) | -0.0488
3 | COc1cc2c(CCNC(C)=O)c[nH]c2cc1Cl [6-Chloromelatonin] | 0.116
4 | Nc1ncnc2c1nc(Br)n2[C@@H]1O[C@@H]2COP(=O)(O)O[C@H]2[C@H]1O [8-Bromo-cAMP, sodium salt] | -0.03
5 | Cc1ccc(O)c(N=Nc2ccccc2)n1 | -0.085
6 | N[C@@H](C(=O)O)c1ccc(C(=O)O)c(C(=O)O)c1 | 0.0219
7 | COCCNC(=O)COc1ccc(OCCNC[C@H](O)COc2ccccc2)cc1 [ZD 7114 hydrochloride] | -0.0243
8 | C[C@@H](NCc1cc(Br)cc2[nH]c(=O)c(=O)[nH]c12)P(=O)(O)O | -0.0258
9 | CN(CCOc1ccc(-c2ccc3c(c2)OCO3)cc1C(C)(C)C)CC(=O)O | 0.0162
10 | CCCCCCCC/C=C\CCCCCCCC(=O)N[C@@H](CO)Cc1ccc(O)cc1 | -0.0664
11 | CN(C)CCCn1cc(C2=C(c3c[nH]c4ccccc34)C(=O)NC2=O)c2ccccc21 | 0.0637
12 | COc1cc(Br)c(S(=O)(=O)Nc2ccc(Cl)c(O[C@@H]3CCN(C)C3)c2)cc1OC | 0.0554
13 | CN1Cc2c(C(=O)OC(C)(C)C)ncn2-c2ccsc2C1=O | 0.0837
14 | c1ccc2sc(N3CCN(Cc4ccc5c(c4)OCO5)CC3)nc2c1 [2-[1-(4-Piperonyl)piperazinyl]benzothiazole] | -0.0265
15 | CCCCC1CCC(c2nc(-c3ccncc3)no2)CC1 (stereo not given) | 0.0616
16 | CC1=C(/C=C/C(=C/C=C/C(C)=C/C(=O)O)c2ccc(C)cc2)C(C)(C)CCC1 | -0.04
17 | CC(C)NCC(O)COc1ccc(CCOCC2CC2)cc1 (stereo not given) [Betaxolol hydrochloride] | -0.0536
18 | Cc1c(C(=O)NC2CCCCC2)sc2nc3ccc(N)cc3n12 | -0.0364
19 | O=C(O)C1=CCCNC1 [Guvacine hydrochloride] | -0.191
20 | CCC(=O)OCN1C(=O)C=CC1=O | -0.902

Row | Compound | log
21 | c1ccc(-c2n[nH]c3c2oc2ccccc23)cc1 | -0.0722
22 | C[C@@H](CN1CCC(Cc2ccccc2)CC1)[C@@H](O)c1ccc(O)cc1 [Ro 25-6981 maleate] | 0.119
23 | O=C1CC2(CCCC2)CC(=O)N1CCCCNCC1COc2ccccc2O1 (stereo not given) | 0.0665
24 | O=C(O)COc1cccc(-c2ocnc2-c2nc(-c3ccccc3)c(-c3ccccc3)o2)c1 | 0.135
25 | O=C1NC(=O)c2cc(Nc3ccc(F)cc3)c(Nc3ccc(F)cc3)cc21 | -0.0275
26 | CCOC(=O)[C@H](CCc1ccccc1)N[C@@H](C)C(=O)N1Cc2cc(OC)c(OC)cc2C[C@H]1C(=O)O [Moexipril hydrochloride] | -0.0133
27 | N=C(CC(O)COc1ccccc1-c1ccccc1)N1CCCCC1 (stereo not given) | 0.0609
28 | CCCCCCC(=O)OC1CC(C)(C)NC(C)(C)C1 [TMPH hydrochloride] | -0.0154
29 | CCN(CC)CCOC(=O)c1cc(Cl)c(N)cc1OC [SDZ 205-557 hydrochloride] | -0.0464
30 | CC(C)NCC(O)c1ccc(O)c(O)c1 (stereo not given) [Isoproterenol hydrochloride] | 0.033
31 | CC[C@]1(O)C[C@@H]2CN(CCc3c([nH]c4ccccc34)[C@@](C(=O)OC)(c3cc4c(cc3OC)N(C)[C@H]3[C@@](O)(C(=O)OC)[C@H](OC(C)=O)[C@]5(CC)C=CCN6CC[C@]43[C@@H]65)C2)C1 [Vinblastine sulfate] | 0.00106
32 | COc1cccc(OC)c1OCCNCC1COc2ccccc2O1 (stereo not given) [WB 4101 hydrochloride] | -0.0393
33 | Cc1nc2c(O)cccc2c(=O)[nH]1 | 0.0801
34 | O=C(NCCCCCCNC(=O)ON=C1CCCCC1)ON=C1CCCCC1 | 0.0512
35 | COc1ccc(NC(=O)c2ccc(-c3ccc(-c4noc(C)n4)cc3C)cc2)cc1N1CCN(C)CC1 | 0.0753
36 | COc1ccc(Cl)cc1C(=O)NCCc1ccc(S(=O)(=O)NC(=O)NC2CCCCC2)cc1 [Glibenclamide] | -8.27e-06
37 | CNCCCC12CCC(c3ccccc31)c1ccccc12 [Maprotiline hydrochloride] | -0.00324
38 | O=[N+]([O-])c1cc2nc(O)c(O)nc2cc1[N+](=O)[O-] | -0.0277
39 | CCCn1c(=O)[nH]c2nc(-c3ccc(S(=O)(=O)O)cc3)[nH]c2c1=O | -0.0548
40 | CC1=NN(c2ccccc2)C(=O)C1 | 0.06

Already shown: an excerpt of the list.
Row | Compound | log
37 | CNCCCC12CCC(c3ccccc31)c1ccccc12 [Maprotiline hydrochloride] | -0.00324
38 | O=[N+]([O-])c1cc2nc(O)c(O)nc2cc1[N+](=O)[O-] | -0.0277
